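Lysine-tRNA ligase, Plasmodium falciparum 3D7 (UniProt Q8IDJ8). Enzyme assay of the cytosolic lysyl-tRNA synthetase in 384-well plates, read by luminescence. Tested at 30 µM. Higher reads as stronger inhibition, judged from the few compounds that gave an IC50. Of about 69,000 compounds tested this way, about 49 (0.071%) reached 50% or more in at least one test.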

Amino acid sequences for entries named in this document (tags omitted). Residues count along the entry.
UniProt Q8IDJ8, 1-583: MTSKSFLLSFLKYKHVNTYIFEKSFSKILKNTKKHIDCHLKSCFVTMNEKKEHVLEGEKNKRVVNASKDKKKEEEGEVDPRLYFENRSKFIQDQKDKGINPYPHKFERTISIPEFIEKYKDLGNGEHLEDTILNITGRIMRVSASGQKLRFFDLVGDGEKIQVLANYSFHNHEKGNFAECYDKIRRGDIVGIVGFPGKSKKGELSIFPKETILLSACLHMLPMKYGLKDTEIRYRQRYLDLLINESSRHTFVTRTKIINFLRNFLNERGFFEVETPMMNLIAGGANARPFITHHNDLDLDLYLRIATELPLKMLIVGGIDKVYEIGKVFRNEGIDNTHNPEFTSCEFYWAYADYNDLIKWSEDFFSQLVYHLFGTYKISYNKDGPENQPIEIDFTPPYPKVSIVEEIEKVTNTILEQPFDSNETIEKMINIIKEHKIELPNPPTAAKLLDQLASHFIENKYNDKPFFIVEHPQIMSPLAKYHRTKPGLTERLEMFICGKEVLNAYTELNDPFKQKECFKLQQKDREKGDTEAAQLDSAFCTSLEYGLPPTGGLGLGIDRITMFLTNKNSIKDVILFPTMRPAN

Values are the deposited “Percent Effect”, in %. The record does not define 0% and 100%; most values in the screen are far below 50% and negative numbers occur (in some assays of this library far below -100). Compounds were drawn at random from those tested, without regard to their results.

Compound: CCN1CC2(CC1=O)CN(C(=O)COC)CCN(S(C)(=O)=O)C2 (centres undefined)
Percent Effect: -0.1519

Compound: O=C(NCc1cncc2c1CCN(CC1CCOC1)C2)c1ccco1 (centres undefined)
Percent Effect: 2.074

Compound: COCCC1COC2(CCN(C(=O)CC3CCCC3)CC2)C1 (centres undefined)
Percent Effect: 2.282

Compound: CCCn1cnc2c1CN(S(=O)(=O)Cc1ccccc1)[C@H](C(=O)OC)C2
Percent Effect: 3.096

Compound: O=C(Nc1ccccc1)N1CCC2(CC(=O)N(c3ccsc3)C2)C1 (centres undefined)
Percent Effect: 1.884

Compound: c1cnnc(-c2noc(COCC3CCCO3)n2)c1 (centres undefined)
Percent Effect: -0.5548

Compound: CN(Cc1cccc(F)c1)C(=O)CN1CCCC1CCc1ccccc1 (centres undefined)
Percent Effect: 0.6347

Compound: COc1ccc(CN2CCN(C(C)=O)CC2)cc1SC(F)(F)F
Percent Effect: 1.55

Compound: CCN(CC)Cc1cn2c(n1)CN(C(=O)c1cc(C)on1)CC2
Percent Effect: 0.3609

Compound: Cc1noc(C)c1CCc1nc(C2CCOC2)no1 (centres undefined)
Percent Effect: 0.832

Compound: CCOCC1CN(Cc2ccccn2)Cc2nn(CC3CC3)cc21 (centres undefined)
Percent Effect: 6.526

Compound: CC1N(CC2CC2)C(=O)COC12CCN(C(=O)c1ccncc1)CC2 (centres undefined)
Percent Effect: 1.975

Compound: O=C(Cc1ccccc1C(F)(F)F)N1CCC2(CC1)[C@H](O)C[C@@H]2O
Percent Effect: 1.236

Compound: Cc1noc([C@]23COC[C@H]2CN(C(=O)COC2CCCC2)C3)n1
Percent Effect: 1.953

Compound: CCn1nc(C)c2nc(C(C)C)nc(NCCCO)c21
Percent Effect: 2.297

Compound: COC(=O)C1(C)CCN(C(=O)NCCc2c(C)[nH]c3ccccc23)C1 (centres undefined)
Percent Effect: 2.865

Compound: COCCN(CC(C)C)c1cc(C)ncn1
Percent Effect: 1.021

Compound: Cc1ccc(NC2CCN(C(=O)c3cc(C(N)=O)cs3)CC2)nn1
Percent Effect: 2.476

Compound: CC(C)C(=O)NC1CC2(CCN(CC(=O)N(C)C)CC2)c2ccccc21 (centres undefined)
Percent Effect: 5.768

Compound: CCn1cc(NC(=O)NCC(O)COc2ccccc2)cn1 (centres undefined)
Percent Effect: -0.06577

Compound: COc1cc(CNCCc2cnn(C)c2)cc(OC)c1OC
Percent Effect: -0.6671

Compound: Cc1nc(C)n(Cc2cccc(NC3CCN(C)C3=O)c2)n1 (centres undefined)
Percent Effect: -2.556

Compound: CC(C)(O)CN1CCN(C(=O)COC2CCCCC2)CC1
Percent Effect: 2.468

Compound: Cc1cccnc1CN1CCC(c2nnc(Cn3cccn3)n2C)CC1
Percent Effect: 9.791

Compound: Cc1nc2n(n1)CC(NCc1nc(-c3cccs3)no1)CC2 (centres undefined)
Percent Effect: 0.1969

Compound: Cc1nc2[nH]cnc(NCCCN3CCOCC3)c-2n1
Percent Effect: -0.183

Compound: CCOc1ccccc1N1CCN(c2nnc(C)o2)CC1
Percent Effect: 1.643

Compound: CCC(C)(CC(=O)OC)NC(=O)c1ccc2[nH]ccc2c1 (centres undefined)
Percent Effect: -1.533

2 of the entries, repeated:

Compound	Percent Effect
CCn1cc(NC(=O)NCC(O)COc2ccccc2)cn1 (centres undefined)	-0.06577
O=C(Nc1ccccc1)N1CCC2(CC(=O)N(c3ccsc3)C2)C1 (centres undefined)	1.884

From ChEMBL document CHEMBL3988442, “University of Dundee, Small-Polar-MMV Screening Library” (2021).